The list does not hold the whole screen: it is rich in T/C values a quarter to a half above the control, in often repeated tests (any T/C) and in doses without a T/C. Further doses and runs are listed elsewhere. T/C: endpoint of the treated group in % of that of the vehicle group. Some doses have a count of surviving animals in place of a T/C: the source files T/C as zero there, which appears to mark a toxic dose or a test without result, not a measured value. Some doses without a T/C left all or most animals alive at the check, yet need not have been tolerated: survival well below the control is almost never listed, so the zero probably covers shortened survival too. Survivors were counted at the toxicity check, usually on the fifth day, unless a day is given; later deaths do not show. Schedules are NCI's codes, taken here to give the interval after Q, in days (D) or hours (H), and the number of doses after X. Some schedule codes hold Z or #, which are not explained here. Where survival is the endpoint, this PubChem deposit counts one and a half times the control or more as active, and values a quarter to a half above the control carry no call in these data; other NCI protocols may use other cut-offs.

For this assay, the system named is L1210 leukemia ip in BDF1 mice, survival T/C. Put plainly: NCI In Vivo Anticancer Drug Screen. Data for tumor model L1210 Leukemia (intraperitoneal) in B6D2F1 (BDF1) mice. Particulars: T/C endpoint: mean survival time, higher T/C = longer survival.
[1] abbreviates: dose: 200.0 mg/kg/injection, schedule: Q01DX001 (ip), vehicle: carboxymethylcellulose (CMC).
The mark [2] stands for this setting: dose: 400.0 mg/kg/injection, schedule: Q01DX001 (ip), vehicle: carboxymethylcellulose (CMC).
[3] abbreviates: dose: 150.0 mg/kg/injection, schedule: Q01DX001 (ip), vehicle: saline.
[4] abbreviates: dose: 300.0 mg/kg/injection, schedule: Q01DX001 (ip), vehicle: saline.
The mark [5] stands for this setting: dose: 100.0 mg/kg/injection, schedule: Q01DX009 (ip), vehicle: Klucel (hydroxypropylcellulose) (HPC).
Where [6] appears, read: dose: 200.0 mg/kg/injection, schedule: Q01DX009 (ip), vehicle: Klucel (hydroxypropylcellulose) (HPC).
[7] abbreviates: dose: 400.0 mg/kg/injection, schedule: Q04DX003 (ip), vehicle: Klucel (hydroxypropylcellulose) (HPC).
[8] abbreviates: dose: 400.0 mg/kg/injection, schedule: Q01DX009 (ip), vehicle: Klucel (hydroxypropylcellulose) (HPC).
[9] abbreviates: dose: 100.0 mg/kg/injection, schedule: Q04DX003 (ip), vehicle: saline.
Where [10] appears, read: dose: 200.0 mg/kg/injection, schedule: Q04DX003 (ip), vehicle: saline.
The mark [11] stands for this setting: dose: 100.0 mg/kg/injection, schedule: Q04DX003 (ip), vehicle: Klucel (hydroxypropylcellulose) (HPC).
[12] abbreviates: dose: 200.0 mg/kg/injection, schedule: Q04DX003 (ip), vehicle: Klucel (hydroxypropylcellulose) (HPC).

Turning to `Cn1c(=O)c2c(nc(C3CC=CCC3)n2C)n(C)c1=O` (centres undefined), the survivor count (dose: 100.0 mg/kg/injection, schedule: Q01DX001 (ip), vehicle: other) is listed as 0 of 4; the survivor count (dose: 200.0 mg/kg/injection, schedule: Q01DX001 (ip), vehicle: other) is 0 of 4; the survivor count (dose: 400.0 mg/kg/injection, schedule: Q01DX001 (ip), vehicle: other) is recorded as 0 of 4.
On to `Nc1nc(CBr)c(CCCCc2ccccc2)c(=O)[nH]1`, for which the survivor count (dose: 150.0 mg/kg/injection, schedule: Q01DX001 (ip), vehicle: saline with Tween-80) is recorded as 1 of 6.
Regarding `CCN=C(NCC)Nc1ccc(NC(=O)Nc2ccc(NC(=O)Nc3ccc(NC(=NCC)NCC)cc3)cc2)cc1`, the survivor count runs as follows: (dose: 16.0 mg/kg/injection, schedule: Q01DX Z (ip), vehicle: water) 0 of 6; (dose: 32.0 mg/kg/injection, schedule: Q01DX Z (ip), vehicle: water) 0 of 6.
On to `COc1ccc(C(=O)CBr)cc1OC`, for which the survivor count runs as follows: under setting [1], 1 of 6; under setting [2], 1 of 6.
Take `N=C([Se])c1ncn(C2OC(CO)C(O)C2O)c1N` (centres undefined): the survivor count runs as follows: (dose: 100.0 mg/kg/injection, schedule: Q01DX005 (ip), vehicle: saline) 0 of 6; (dose: 200.0 mg/kg/injection, schedule: Q01DX005 (ip), vehicle: saline) 0 of 6.
Turning to `C=CCC1(/C(=C\CC)CCC)C(=O)NC(=O)NC1=O`, the survivor count under setting [3] was 0 of 6 and the survivor count under setting [4] was 0 of 6.
Turning to `O=C1NC(=S)S/C1=C\c1ccc(Cl)c(Cl)c1`, under “dose: 400.0 mg/kg/injection, schedule: Q01DX009 (ip), vehicle: saline with Tween-80”, the survivor count is 3 of 6.
With `O=C(/C=C/C(=O)c1ccccc1)c1ccccc1`, the survivor count (dose: 400.0 mg/kg/injection, schedule: Q04DX002 (ip), vehicle: Klucel (hydroxypropylcellulose) (HPC)) is 0 of 3.
Take `CN(C)N=Nc1ccc([N+](=O)[O-])cc1C(N)=O`: the T/C (dose: 200.0 mg/kg/injection, schedule: Q01DX007 (ip), vehicle: saline with Tween-80) is 147 % of control.
`CC(=O)OCC1OC(n2ccc3c(=O)[nH]cnc32)C(OC(C)=O)C1OC(C)=O` (centres undefined): the survivor count (dose: 100.0 mg/kg/injection, schedule: Q01DX015 (ip), vehicle: carboxymethylcellulose (CMC)) is given as 5 of 6.
On to `Cc1cccc(Cl)c1NC(=O)Nc1cccc(C(=O)O)c1`, for which the survivor count under setting [5] is 6 of 6.
`CCC[CH2][Sn]([CH2]CCC)([S]C#N)[S]C#N`: the survivor count runs as follows: (dose: 12.5 mg/kg/injection, schedule: Q04DX002 (ip), vehicle: gum acacia) 3 of 3; (dose: 25.0 mg/kg/injection, schedule: Q04DX002 (ip), vehicle: gum acacia) 3 of 3; (dose: 50.0 mg/kg/injection, schedule: Q04DX002 (ip), vehicle: gum acacia) 1 of 3; (dose: 100.0 mg/kg/injection, schedule: Q04DX002 (ip), vehicle: gum acacia) 0 of 3; (dose: 200.0 mg/kg/injection, schedule: Q04DX002 (ip), vehicle: gum acacia) 0 of 3; (dose: 400.0 mg/kg/injection, schedule: Q04DX002 (ip), vehicle: gum acacia) 0 of 3.
With `COc1ccc(Cl)cc1N1C(=O)C2C(C1=O)C1(Cl)C(Cl)=C(Cl)C2(Cl)C1(Cl)Cl` (centres undefined), the survivor count under setting [6] is listed as 2 of 6 and the survivor count under setting [7] was 2 of 6.
Turning to `ClC1(Cl)C2CC(C3C4C=CC(C4)C32)C1(Cl)Cl` (centres undefined), the survivor count reads like this: (dose: 100.0 mg/kg/injection, schedule: Q01DX001 (ip), vehicle: carboxymethylcellulose (CMC)) 4 of 4; under setting [1], 4 of 4.
Turning to `O=C(Nc1ccccn1)Nc1cc(C(F)(F)F)ccc1Cl`, the survivor count reads like this: under setting [6], 3 of 3; under setting [8], 3 of 3.
On to `Cc1ccc(S(=O)(=O)/N=C2\SCc3ccccc32)cc1`, for which the survivor count (dose: 100.0 mg/kg/injection, schedule: Q01DX009 (ip), vehicle: saline) is 0 of 3 and the survivor count (dose: 200.0 mg/kg/injection, schedule: Q01DX009 (ip), vehicle: saline) was 0 of 3.
With `Nc1nc2nc[nH]c2c(N)c1Br` (tested in a mixture with another compound), the survivor count (dose: 400.0 mg/kg/injection, schedule: Q01DX001 (ip), vehicle: saline) is 3 of 6.
For the compound `Nc1nc(N)c(N=Nc2ccccc2S(=O)(=O)O)c(=O)[nH]1`, the survivor count is listed as 6 of 6 under setting [9] and 3 of 6 under setting [10].
Consider `Cc1cccc(N)n1`, for which the survivor count by setting is: (dose: 12.5 mg/kg/injection, schedule: Q04DX002 (ip), vehicle: saline) 3 of 3; (dose: 100.0 mg/kg/injection, schedule: Q04DX002 (ip), vehicle: saline) 0 of 3; (dose: 200.0 mg/kg/injection, schedule: Q04DX002 (ip), vehicle: saline) 1 of 3; (dose: 400.0 mg/kg/injection, schedule: Q04DX002 (ip), vehicle: saline) 0 of 3.
With `O=C(c1ccccc1)c1ccc[n+](Cc2c(Cl)cccc2Cl)c1`, the survivor count was 1 of 6 under setting [3] and 0 of 6 under setting [4].
Take `CC1CC([P+](c2ccccc2)(c2ccccc2)c2ccccc2)=NN1` (centres undefined): the survivor count reads like this: under setting [9], 4 of 6; under setting [10], 0 of 6; (dose: 400.0 mg/kg/injection, schedule: Q04DX003 (ip), vehicle: saline) 0 of 6.
Consider `CC(=O)SCC(C)SC(C)=O` (centres undefined), for which the survivor count is listed as 0 of 3 (dose: 100.0 mg/kg/injection, schedule: Q04DX002 (ip), vehicle: saline with Tween-80); 0 of 3 (dose: 200.0 mg/kg/injection, schedule: Q04DX002 (ip), vehicle: saline with Tween-80); 0 of 3 (dose: 400.0 mg/kg/injection, schedule: Q04DX002 (ip), vehicle: saline with Tween-80).
On to `CCNC(=S)C(=S)NCC`, for which the survivor count (dose: 12.0 mg/kg/injection, schedule: Q01DX009 (ip), vehicle: Klucel (hydroxypropylcellulose) (HPC)) was 4 of 6; the survivor count (dose: 25.0 mg/kg/injection, schedule: Q04DX003 (ip), vehicle: Klucel (hydroxypropylcellulose) (HPC)) was 6 of 6; the survivor count (dose: 50.0 mg/kg/injection, schedule: Q04DX003 (ip), vehicle: Klucel (hydroxypropylcellulose) (HPC)) is 1 of 6; the survivor count under setting [11] is recorded as 0 of 6; the survivor count under setting [12] is listed as 0 of 6; the survivor count under setting [7] is 0 of 6.
Take `CCN(CC)CCOc1ccc(-c2ccccc2)cc1`: for the setting “dose: 200.0 mg/kg/injection, schedule: Q04DX003 (ip), vehicle: saline with Tween-80”, the survivor count is given as 5 of 6.
In the case of `C/C=C(C)/C=N/Nc1nnc(N/N=C/C(C)=C/C)c2ccccc12`, the survivor count under setting [2] is given as 0 of 4.
As to `C1CCC2C(C1)C2(N1CCCC1)N1CCCC1` (centres undefined), the survivor count is 5 of 6 (dose: 50.0 mg/kg/injection, schedule: Q01DX009 (ip), vehicle: Klucel (hydroxypropylcellulose) (HPC)); 0 of 6 under setting [5]; 4 of 6 under setting [11]; 0 of 6 under setting [12]; 0 of 6 under setting [7].
Turning to `COC(=O)C(CC/C(=N\Nc1ccc([N+](=O)[O-])cc1[N+](=O)[O-])c1ccccc1)C(=O)OC`, the survivor count runs as follows: (dose: 100.0 mg/kg/injection, schedule: Q01DX001 (ip), vehicle: saline with Tween-80) 6 of 6; (dose: 200.0 mg/kg/injection, schedule: Q01DX001 (ip), vehicle: saline with Tween-80) 6 of 6; (dose: 400.0 mg/kg/injection, schedule: Q01DX001 (ip), vehicle: saline with Tween-80) 6 of 6.
For `CN1C(=O)CN=C(c2ccccc2)c2cc(Cl)ccc21`, the survivor count under setting [7] was 1 of 4.
Regarding `COC(=O)c1ccc(N)cc1O`, the survivor count under setting [8] is given as 4 of 6.

The values above are taken from PubChem BioAssay AID248 (DTP/NCI, 2004).
